Test results taken from patent US10543132B2, “Absorbent article with blood modifying agent” (UNICHARM CORPORATION, priority 2011, dated 2020).

Assay: Absorbent body migration rate (Example 1)
Conditions: time after second dropping of horse EDTA blood; agent coated at about 5 g/m^2

Substance	Absorber migration rate [s]
Isopropyl Citrate	5
Caprylic Acid Diglyceride	9
